From publication PMC4538837, “Structural basis for substrate recognition and processive cleavage mechanisms of the trimeric exonuclease PhoExo I” come the findings set out here.

The target in the data set is T1, PhoExo I-CHis N214L (Pyrococcus horikoshii OT3) (UniProt A0A060P168).
T1 sequence (looked up, limits assumed): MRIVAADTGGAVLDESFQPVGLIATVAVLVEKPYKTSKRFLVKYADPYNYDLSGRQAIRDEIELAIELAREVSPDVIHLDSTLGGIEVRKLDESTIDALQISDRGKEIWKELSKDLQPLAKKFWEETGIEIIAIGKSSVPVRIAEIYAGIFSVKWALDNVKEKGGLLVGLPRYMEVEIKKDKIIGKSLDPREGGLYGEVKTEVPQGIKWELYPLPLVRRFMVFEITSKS
As to the kind of experiment: EMSA. To be noted: 0.1 mM EDTA, no Mg2+, clearly reduced vs wild type, EMSA: 25 mM Hepes-NaOH pH 7.5, 50 mM NaCl, 0.1 mg/ml BSA, 5 nM probe, 0-1600 nM trimer, 5 min 55 C, then 0.05% glutaraldehyde 10 min at room temperature, recombinant protein, protein details: C-terminal 4xHis, label: 5'-32P. A general note: Mobility shift assays separate free from complexed probe on a gel.

Construct, isoform or probe ends are uncertain for at least one entry. A weaker result is weaker than the reference pair of the same experiment. Tags and fusion partners may be left off the protein sequences shown.

For AGCTATGACCATGATTACGAATTGCTT [27-nt DNA], for the setting “single-stranded DNA”, the binding result is “binds more weakly”.
Turning to AGCUAUGACCAUGAUUACGAAUUGCUU [27-nt RNA], the binding result is given as “binds more weakly”.
